Test system: C57BL6/J mice
Test: Indirect calorimetry (CLAMS) in fructose-fed C57BL6 mice
Type: in vivo, mouse
Conditions: 100 mg/kg oral gavage, 24 hours
Description: Materials and Methods. All experiments were carried out using the methods approved by the Animal Research Ethics Board at McMaster University, Canada (Steinberg Laboratory Animal Utilization Protocol #16-12-42). 8-Week-old male C57BL6/J mice were ordered from Jackson Laboratory, Bar Harbor, Me. and housed at the McMaster University Central Animal Facility. Animals were housed in the ventilated cages racks system and provided with ad libitum access to normal chow diet (Teklad 8640 22/5 rodent diet, procured from Envigo, Mississauga ON) and water supplemented with fructose (30% weight/volume, made fresh weekly) for at least 2-weeks before testing commenced. A 12-hour light/dark cycle and a temperature of 23±2° C. were maintained throughout the animal housing. Data were analyzed using one-way analyses of variance followed by a Tukey's multiple comparisons post hoc test where appropriate. All statistical analysis was carried out using GraphPad Prism 8 software. A p-value of less than or equal 0.05 was considered significant.
Experimental and Results. Respiratory Exchange Ratio (RER) and related metabolic parameters were measured using the Comprehensive Lab Animal Monitoring System (CLAMS, Columbus Instruments, Columbus, Ohio). Animals were placed in CLAMS and allowed ad libitum access to normal chow diet and water supplemented with fructose (30% weight/volume) for at least 24 hours before the experiment began. At 5:30 p.m. chow diet was removed and water containing 30% fructose was replaced with normal tap water. Animals were fasted overnight until food and 30% fructose water were made accessible the next day at 7:30 am. (14 hours total). Animals were allowed to feed ad libitum for ˜2 hours. RER was monitored and those animals with RER values >1 were administered either vehicle (1.5% Carboxymethyl cellulose and 0.2% Tween 20) alone or vehicle containing Compound I-1 or Compound I-32 at a dose of 100 mg/kg via oral gavage. Animals remained in the metabolic cages and RER, activity level, locomotor activity, and food intake were monitored for 24 hours. Metabolic parameters were calculated using Oxymax software included with Comprehensive Lab Animal Monitoring System (CLAMS). RER was calculated as the ratio of oxygen consumed (VO2) versus the amount of CO2 produced (VCO2) given by the following equation: RER=VCO2/VO2
Locomotor activity was calculated as the total number of beam breaks in each cage over a 24-hour period. The heat (calorific value, CV) was calculated by the following equation: Heat=CV×VO2 CV=3.815+1.232×RER

Row | SMILES | food intake compared to vehicle controls | total locomotor activity compared to vehicle treated mice
1 | CC(C)(CCCCc1ccc(CCCCC(C)(C)C(=O)O)cc1)C(=O)O [Compound I-1, 6-[4-(5-carboxy-5-methylhexyl)-phenyl]-2,2-dimethylhexanoic acid] | tended to suppress food intake compared to vehicle controls, however, this was not significant | significantly lower
2 | CC(C)(CCCCc1cccc(CCCCC(C)(C)C(=O)O)c1)C(=O)O [Compound I-32, 6-[3-(5-carboxy-5-methylhexyl)-phenyl]-2,2-dimethylhexanoic acid] | tended to suppress food intake compared to vehicle controls, however, this was not significant | significantly lower

Reference: patent publication US11730712B2, “Functionalized long-chain hydrocarbon mono- and di-carboxylic acids and derivatives thereof, and their use for the prevention or treatment of disease” (ESPERVITA THERAPEUTICS, INC., priority 2021, dated 2023)
